For 4 substances, binding results are on record in paper PMC11781183.

The chains behind the UniProt entries cited, without tags or fusion partners.
UniProt P35222: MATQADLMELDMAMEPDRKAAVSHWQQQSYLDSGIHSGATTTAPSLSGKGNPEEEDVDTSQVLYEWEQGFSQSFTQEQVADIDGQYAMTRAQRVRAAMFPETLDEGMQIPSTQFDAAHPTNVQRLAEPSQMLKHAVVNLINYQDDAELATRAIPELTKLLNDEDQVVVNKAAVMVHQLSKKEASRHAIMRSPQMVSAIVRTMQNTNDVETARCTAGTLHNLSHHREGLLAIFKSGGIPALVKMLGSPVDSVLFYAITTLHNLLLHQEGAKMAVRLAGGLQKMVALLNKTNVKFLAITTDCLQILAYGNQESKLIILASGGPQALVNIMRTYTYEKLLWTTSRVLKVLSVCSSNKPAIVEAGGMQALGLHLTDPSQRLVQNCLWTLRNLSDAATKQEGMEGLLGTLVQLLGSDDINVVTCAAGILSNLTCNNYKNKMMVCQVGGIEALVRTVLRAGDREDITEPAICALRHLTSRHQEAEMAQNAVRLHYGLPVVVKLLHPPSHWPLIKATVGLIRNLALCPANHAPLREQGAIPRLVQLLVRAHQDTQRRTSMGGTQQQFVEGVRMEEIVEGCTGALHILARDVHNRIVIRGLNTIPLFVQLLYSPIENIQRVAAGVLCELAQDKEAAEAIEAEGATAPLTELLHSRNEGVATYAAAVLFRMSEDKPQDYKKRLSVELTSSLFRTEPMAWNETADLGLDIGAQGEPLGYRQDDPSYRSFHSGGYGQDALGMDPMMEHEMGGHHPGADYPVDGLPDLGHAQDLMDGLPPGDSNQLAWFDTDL
UniProt Q92841: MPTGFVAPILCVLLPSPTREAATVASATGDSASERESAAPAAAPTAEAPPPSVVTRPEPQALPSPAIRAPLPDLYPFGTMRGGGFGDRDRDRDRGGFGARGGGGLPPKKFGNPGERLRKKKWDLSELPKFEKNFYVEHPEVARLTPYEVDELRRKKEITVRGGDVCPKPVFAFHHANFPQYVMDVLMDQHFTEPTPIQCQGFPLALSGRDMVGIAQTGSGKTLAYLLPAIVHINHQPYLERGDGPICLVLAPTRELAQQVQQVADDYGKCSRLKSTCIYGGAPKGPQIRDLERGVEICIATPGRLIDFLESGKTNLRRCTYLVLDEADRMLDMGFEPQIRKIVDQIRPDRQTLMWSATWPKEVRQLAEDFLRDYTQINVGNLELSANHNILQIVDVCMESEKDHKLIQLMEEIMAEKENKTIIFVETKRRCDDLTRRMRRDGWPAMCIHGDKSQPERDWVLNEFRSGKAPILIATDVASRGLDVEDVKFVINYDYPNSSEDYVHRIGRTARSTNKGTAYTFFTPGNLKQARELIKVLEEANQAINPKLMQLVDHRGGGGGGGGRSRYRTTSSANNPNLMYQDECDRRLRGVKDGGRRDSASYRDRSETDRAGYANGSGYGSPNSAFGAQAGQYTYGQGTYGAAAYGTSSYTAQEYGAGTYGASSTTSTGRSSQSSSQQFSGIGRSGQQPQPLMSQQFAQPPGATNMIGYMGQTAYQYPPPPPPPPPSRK

In experiment [1] the target is β-catenin, endogenous (human (endogenous in HepG2, Huh7, SK-hep1)) (UniProt P35222). The experiment can be described thus: co-IP; Pierce Co-IP Kit; extracts of HCC cells (HepG2, Huh7, SK-hep1; parent cells or cells with lentiviral DDX17 overexpression) incubated overnight with anti-DDX17, anti-β-catenin or anti-p65, isotype IgG as negative control; Western blotting; some cells stimulated with rCXCL8 (50 ng/mL, 24 h), TNFα (15 ng/mL, 24 h) or IL-1β (10 ng/mL, 24 h). Background: In western blotting, separated proteins are transferred to a membrane and probed.

Experiment [2] shares this target. In words: co-IP; nuclear extracts of cells with DDX17 overexpression; IP with anti-β-catenin, Western blotting.
Experiment [3] concerns the target DEAD-box RNA helicase 17 (DDX17), endogenous (human (endogenous in HepG2, Huh7, SK-hep1)) (UniProt Q92841). The experiment can be described thus: proximity ligation; Duolink In Situ Red Starter Kit Mouse/Rabbit; fixed, permeabilised cells; mouse anti-DDX17 with rabbit anti-β-catenin or rabbit anti-p65; confocal microscopy.
The target of experiment [4] is DDX17, ectopic (lentiviral overexpression, full-length human DDX17 cDNA in GV341) (human) (UniProt Q92841). The experiment can be described thus: co-IP; Pierce Co-IP Kit; extracts of HCC cells (HepG2, Huh7, SK-hep1; parent cells or cells with lentiviral DDX17 overexpression) incubated overnight with anti-DDX17, anti-β-catenin or anti-p65, isotype IgG as negative control; Western blotting; some cells stimulated with rCXCL8 (50 ng/mL, 24 h), TNFα (15 ng/mL, 24 h) or IL-1β (10 ng/mL, 24 h).

The target of experiment [5] is DEAD-box RNA helicase 17 (DDX17), endogenous (human (endogenous in HepG2, Huh7, SK-hep1)) (UniProt Q92841). Described as above.
The next experiment addresses HA-DDX17 (human) (UniProt Q92841). In words: co-IP; 293T cells co-transfected with HA-DDX17, c-Myc-β-catenin and Flag-p65 plasmids; IP with anti-HA.

No constants are given. Whether binding was seen depends on the method and setting. Binding seen in cells or lysates may run through a third protein. Some results given as binding are weak or reduced against the parent protein; the word gives no strength.

In the case of “DEAD-box RNA helicase 17 (DDX17), endogenous (from UniProt Q92841 1-729)”, the binding entry in experiment [1] is “binds”.
Turning to “DDX17, ectopic (lentiviral overexpression, full-length human DDX17 cDNA in GV341) (from UniProt Q92841 1-729)”, the binding result in experiment [1] and in experiment [2] was “binds” in each case.
“β-catenin, endogenous (from UniProt P35222 1-781)”: the binding result in experiment [3], in experiment [4] and in experiment [5] was “binds” throughout.
As for “c-Myc-β-catenin (from UniProt P35222 1-781)”, in the experiment with HA-DDX17 (human), the binding entry was “binds”.
